# In the supplement of paper PMC4604168 (melanoma cell lines):
# The list shows a part of the results. Many values rest on one well or one pass, so single values are uncertain.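 The apoptosis fraction was the count of cleaved-PARP antibody-stained nuclei relative to all DNA-stained nuclei, imaged in 1,536-well plates. Screening doses were set so most cells survived, and baseline and induced cleaved-PARP levels vary greatly across cell lines.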
# Tested on: A101D
# Experiment: cleaved PARP positive nuclei fraction relative to DMSO control; melanoma cells; higher = more apoptosis
# Conditions: library dose: low library concentration; 72 h
row,SMILES,cleaved PARP positive nuclei fraction
1,"Nc1ncn([C@H]2C[C@H](O)[C@@H](CO)O2)c(=O)n1 [decitabine] + Cc1cc(N2CCOCC2)cc2[nH]c(-c3c(NC[C@@H](O)c4cccc(Cl)c4)cc[nH]c3=O)nc12 [BMS536924] (first compound 0.1 µM, partner dose 0.2 µM)",120%
2,"Cn1c(=O)n(-c2ccc(C(C)(C)C#N)cc2)c2c3cc(-c4cnc5ccccc5c4)ccc3ncc21 + NCC(=O)Nc1ccc(-n2nc(C(F)(F)F)cc2-c2ccc3c(ccc4ccccc43)c2)cc1 [OSU03012] (first compound 0.004 µM, partner dose 1 µM)",111%
3,"CS(=O)(=O)CCNCc1ccc(-c2ccc3ncnc(Nc4ccc(OCc5cccc(F)c5)c(Cl)c4)c3c2)o1 [lapatinib] + O=C(Nc1cccc(Cl)c1)Nc1ncc(CCNc2ncnc3ccsc23)s1 [SNS314] (first compound 0.8 µM, partner dose 0.0008 µM)",74%
4,"CN1CCN(c2ccc3nc(-c4c(N)c5c(F)cccc5[nH]c4=O)[nH]c3c2)CC1 [Dovitinib] + CN(C)S(=O)(=O)c1ccc2c(c1)/C(=C/c1cc3c([nH]1)CCCC3)C(=O)N2 [SU6656] (first compound 0.1 µM, partner dose 0.4 µM)",146%
5,"C[C@@H](Oc1cc(-c2cnn(C3CCNCC3)c2)cnc1N)c1c(Cl)ccc(F)c1Cl [Crizotinib] + Cn1cncc1[C@@](N)(c1ccc(Cl)cc1)c1ccc2c(c1)c(-c1cccc(Cl)c1)cc(=O)n2C [tipifarnib] (first compound 0.2 µM, partner dose 0.01 µM)",87.1%
6,"CO[C@H]1C[C@@H]2CC[C@@H](C)[C@@](O)(O2)C(=O)C(=O)N2CCCC[C@H]2C(=O)O[C@H]([C@H](C)C[C@@H]2CC[C@@H](OCCO)[C@H](OC)C2)CC(=O)[C@H](C)/C=C(\C)[C@@H](O)[C@@H](OC)C(=O)[C@H](C)C[C@H](C)/C=C/C=C/C=C/1C [everolimus] + O=C(Nc1cccc(Cl)c1)Nc1ncc(CCNc2ncnc3ccsc23)s1 [SNS314] (first compound 0.02 µM, partner dose 0.0008 µM)",209%
7,"O=C(O)c1ccc2c(c1)nc(Nc1cccc(Cl)c1)c1ccncc12 + NC(=O)Nc1cc(-c2cccc(F)c2)sc1C(=O)N[C@H]1CCCNC1 [AZD7762] (first compound 0.4 µM, partner dose 0.02 µM)",162%
8,"Cn1c(=O)n(-c2ccc(C(C)(C)C#N)cc2)c2c3cc(-c4cnc5ccccc5c4)ccc3ncc21 + O=C(O)c1ccc(-c2c[nH]c3ncc(-c4ccccc4)cc23)cc1C1CCCC1 [GSK650394] (first compound 0.004 µM, partner dose 0.16 µM)",98.3%
9,"O=C(O)c1ccc2c(c1)nc(Nc1cccc(Cl)c1)c1ccncc12 + O=C(O)c1ccc(-c2c[nH]c3ncc(-c4ccccc4)cc23)cc1C1CCCC1 [GSK650394] (first compound 0.4 µM, partner dose 0.16 µM)",43.1%
10,"CC(C)C[C@H](NC(=O)[C@H](Cc1ccccc1)NC(=O)c1cnccn1)B(O)O [Bortezomib] + O=C(CCCCCCC(=O)Nc1ccccc1)NO [vorinostat] (first compound 0.001 µM, partner dose 0.08 µM)",418%
11,"O=C(O)c1ccc2c(c1)nc(Nc1cccc(Cl)c1)c1ccncc12 + O=C(Nc1cccc(Cl)c1)Nc1ncc(CCNc2ncnc3ccsc23)s1 [SNS314] (first compound 0.4 µM, partner dose 0.0008 µM)",67.4%
12,"Nc1nc(F)nc2c1ncn2[C@@H]1O[C@H](CO)[C@@H](O)[C@@H]1O [fludarabine] + C=CCn1c(=O)c2cnc(Nc3ccc(N4CCN(C)CC4)cc3)nc2n1-c1cccc(C(C)(C)O)n1 [MK1775] (first compound 0.2 µM, partner dose 0.02 µM)",93.7%
13,"Nc1ccn([C@@H]2O[C@H](CO)[C@@H](O)C2(F)F)c(=O)n1 [gemcitabine] + COc1cc(Nc2ncc(F)c(Nc3ccc4c(n3)NC(=O)C(C)(C)O4)n2)cc(OC)c1OC [Tamatinib] (first compound 0.0004 µM, partner dose 0.4 µM)",136%
14,"Cn1c(=O)n(-c2ccc(C(C)(C)C#N)cc2)c2c3cc(-c4cnc5ccccc5c4)ccc3ncc21 + COc1cc2c(Oc3ccc4[nH]c(C)cc4c3F)ncnc2cc1OCCCN1CCCC1 [cediranib] (first compound 0.004 µM, partner dose 0.4 µM)",128%
15,"Cc1cc(Nc2cc(N3CCN(C)CC3)nc(/C=C/c3ccccc3)n2)n[nH]1 + NC(=O)Nc1cc(-c2cccc(F)c2)sc1C(=O)N[C@H]1CCCNC1 [AZD7762] (first compound 0.04 µM, partner dose 0.02 µM)",55.4%
16,"Nc1nc(F)nc2c1ncn2[C@@H]1O[C@H](CO)[C@@H](O)[C@@H]1O [fludarabine] + O=C(Nc1cccc(Cl)c1)Nc1ncc(CCNc2ncnc3ccsc23)s1 [SNS314] (first compound 0.2 µM, partner dose 0.0008 µM)",125%
17,"CS(=O)(=O)CCNCc1ccc(-c2ccc3ncnc(Nc4ccc(OCc5cccc(F)c5)c(Cl)c4)c3c2)o1 [lapatinib] + CN(NC(=O)CC(=O)NN(C)C(=S)c1ccccc1)C(=S)c1ccccc1 [STA4783] (first compound 0.8 µM, partner dose 0.006 µM)",202%
18,"CC(C)C[C@H](NC(=O)[C@H](Cc1ccccc1)NC(=O)c1cnccn1)B(O)O [Bortezomib] + CO[C@@H]1[C@H](N(C)C(=O)c2ccccc2)C[C@H]2O[C@]1(C)n1c3ccccc3c3c4c(c5c6ccccc6n2c5c31)C(=O)NC4 [Midostaurin] (first compound 0.001 µM, partner dose 0.08 µM)",118%
19,"C[C@@H](Oc1cc(-c2cnn(C3CCNCC3)c2)cnc1N)c1c(Cl)ccc(F)c1Cl [Crizotinib] + O=C(O)c1ccc(-c2c[nH]c3ncc(-c4ccccc4)cc23)cc1C1CCCC1 [GSK650394] (first compound 0.2 µM, partner dose 0.16 µM)",87.6%
20,"CS(=O)(=O)CCNCc1ccc(-c2ccc3ncnc(Nc4ccc(OCc5cccc(F)c5)c(Cl)c4)c3c2)o1 [lapatinib] + NC(=O)Nc1cc(-c2cccc(F)c2)sc1C(=O)N[C@H]1CCCNC1 [AZD7762] (first compound 0.8 µM, partner dose 0.02 µM)",217%
21,"CNC(=O)c1cc(Oc2ccc(NC(=O)Nc3ccc(Cl)c(C(F)(F)F)c3)cc2)ccn1 [sorafenib] + NC(=O)Nc1cc(-c2cccc(F)c2)sc1C(=O)N[C@H]1CCCNC1 [AZD7762] (first compound 0.4 µM, partner dose 0.02 µM)",148%
22,"CN1CCN(c2ccc3nc(-c4c(N)c5c(F)cccc5[nH]c4=O)[nH]c3c2)CC1 [Dovitinib] + NCC(=O)Nc1ccc(-n2nc(C(F)(F)F)cc2-c2ccc3c(ccc4ccccc43)c2)cc1 [OSU03012] (first compound 0.1 µM, partner dose 1 µM)",75.7%
23,"C=C(c1ccc(C(=O)O)cc1)c1cc2c(cc1C)C(C)(C)CCC2(C)C [Bexarotene] + NC(=O)Nc1cc(-c2cccc(F)c2)sc1C(=O)N[C@H]1CCCNC1 [AZD7762] (first compound 2 µM, partner dose 0.02 µM)",41.8%
24,"Cn1c(=O)n(-c2ccc(C(C)(C)C#N)cc2)c2c3cc(-c4cnc5ccccc5c4)ccc3ncc21 + Cn1cncc1[C@@](N)(c1ccc(Cl)cc1)c1ccc2c(c1)c(-c1cccc(Cl)c1)cc(=O)n2C [tipifarnib] (first compound 0.004 µM, partner dose 0.01 µM)",104%
25,"C[C@@H](Oc1cc(-c2cnn(C3CCNCC3)c2)cnc1N)c1c(Cl)ccc(F)c1Cl [Crizotinib] + CN(NC(=O)CC(=O)NN(C)C(=S)c1ccccc1)C(=S)c1ccccc1 [STA4783] (first compound 0.2 µM, partner dose 0.006 µM)",96.5%
26,"CC(C)C[C@H](NC(=O)[C@H](Cc1ccccc1)NC(=O)c1cnccn1)B(O)O [Bortezomib] + COc1cc2c(Oc3ccc4[nH]c(C)cc4c3F)ncnc2cc1OCCCN1CCCC1 [cediranib] (first compound 0.001 µM, partner dose 0.4 µM)",848%
27,"Cc1cc(Nc2cc(N3CCN(C)CC3)nc(/C=C/c3ccccc3)n2)n[nH]1 + Cc1cc(N2CCOCC2)cc2[nH]c(-c3c(NC[C@@H](O)c4cccc(Cl)c4)cc[nH]c3=O)nc12 [BMS536924] (first compound 0.04 µM, partner dose 0.2 µM)",44.8%
28,"C[C@@H](Oc1cc(-c2cnn(C3CCNCC3)c2)cnc1N)c1c(Cl)ccc(F)c1Cl [Crizotinib] + CC1(C)NC(=O)N(c2ccc([N+](=O)[O-])c(C(F)(F)F)c2)C1=O [nilutamide] (first compound 0.2 µM, partner dose 1 µM)",127%
29,"Cn1c(=O)n(-c2ccc(C(C)(C)C#N)cc2)c2c3cc(-c4cnc5ccccc5c4)ccc3ncc21 + NC(=O)Nc1cc(-c2cccc(F)c2)sc1C(=O)N[C@H]1CCCNC1 [AZD7762] (first compound 0.004 µM, partner dose 0.02 µM)",107%

# A stretch taken from the entries so far, as a working copy:
row,SMILES,cleaved PARP positive nuclei fraction
16,"Nc1nc(F)nc2c1ncn2[C@@H]1O[C@H](CO)[C@@H](O)[C@@H]1O [fludarabine] + O=C(Nc1cccc(Cl)c1)Nc1ncc(CCNc2ncnc3ccsc23)s1 [SNS314] (first compound 0.2 µM, partner dose 0.0008 µM)",125%
17,"CS(=O)(=O)CCNCc1ccc(-c2ccc3ncnc(Nc4ccc(OCc5cccc(F)c5)c(Cl)c4)c3c2)o1 [lapatinib] + CN(NC(=O)CC(=O)NN(C)C(=S)c1ccccc1)C(=S)c1ccccc1 [STA4783] (first compound 0.8 µM, partner dose 0.006 µM)",202%
18,"CC(C)C[C@H](NC(=O)[C@H](Cc1ccccc1)NC(=O)c1cnccn1)B(O)O [Bortezomib] + CO[C@@H]1[C@H](N(C)C(=O)c2ccccc2)C[C@H]2O[C@]1(C)n1c3ccccc3c3c4c(c5c6ccccc6n2c5c31)C(=O)NC4 [Midostaurin] (first compound 0.001 µM, partner dose 0.08 µM)",118%
19,"C[C@@H](Oc1cc(-c2cnn(C3CCNCC3)c2)cnc1N)c1c(Cl)ccc(F)c1Cl [Crizotinib] + O=C(O)c1ccc(-c2c[nH]c3ncc(-c4ccccc4)cc23)cc1C1CCCC1 [GSK650394] (first compound 0.2 µM, partner dose 0.16 µM)",87.6%
20,"CS(=O)(=O)CCNCc1ccc(-c2ccc3ncnc(Nc4ccc(OCc5cccc(F)c5)c(Cl)c4)c3c2)o1 [lapatinib] + NC(=O)Nc1cc(-c2cccc(F)c2)sc1C(=O)N[C@H]1CCCNC1 [AZD7762] (first compound 0.8 µM, partner dose 0.02 µM)",217%
